The list shows a part of the results. Shown are side measurements of this screen, not its main read-out; they come without a call.

The nature of this test: cytotoxicity in NIH3T3 fibroblasts, dose response, cytotoxicity control, cell-based, plate reader, cherry-pick, two tests (AID 651900). The note with it: test 2 concentration series, at 26 µM.
On to `O=C(NCc1ccco1)c1ccc(-c2ccc3nccn3c2)cc1`, for which the activity was 10.9%.

On to `COc1ccc(-c2cc(NC=O)c3ncc(-c4cccc(C(=O)N(C)C)c4)n3c2)cn1`, for which the activity was -3.68%.

With `COc1cc(-c2n[nH]c(=S)n2-c2cccc(C(F)(F)F)c2)cc(OC)c1OC`, the activity was -6.09%.

As to `Cc1nc2sc(C(c3ccc(Cl)cc3)N3CCN(c4ccccc4F)CC3)c(O)n2n1` (centres undefined), the activity was -4.2%.

Consider `COC(=O)C1=C(C)Nc2sc(C(N)=O)c(N)c2C1c1ccncc1` (centres undefined), for which the activity was 4.49%.

Regarding `CN(Cc1ccccc1)C(=O)CCS(=O)(=O)c1ccc2c(c1)NC(=O)CS2`, the activity turned out to be 8.48%.

With `CCCN1CCN(C(=O)C2CCN(c3nnc(C)c4c(C)n(-c5ccc(C)cc5)nc34)CC2)CC1`, the activity was -8.58%.

Take `CCOc1ccc(-n2c(SCC(N)=O)nc3c(c2=O)SCC3)cc1`: the activity stood at 6.74%.

With `CCn1c(=O)c(=O)n(CC)c2cc(S(=O)(=O)Nc3cc(C)ccc3C)ccc21`, the activity is -16%.

Turning to `CC(=O)c1c(C)[nH]c(C(=O)Nc2cccnc2)c1C`, the activity worked out at 2.65%.

Regarding `COC(=O)C1C(=O)C=C(Nc2ccc(F)cc2)CC1c1ccc(OC)cc1` (centres undefined), the activity is -1.72%.

On to `O=C(O)CSc1ncnc2scc(-c3ccc(Br)cc3)c12`, for which the activity is -3.07%.

Take `COc1ccc(F)cc1C(=O)C1CCCN(C(=O)c2ccc(C(C)=O)s2)C1` (centres undefined): the activity was -3.09%.

`O=C1CCCc2c1cc(C(=O)NCCCN1CCOCC1)c(=O)n2-c1ccc(Cl)cc1`: the activity is -2.13%.

Take `O=C(Nc1ccc(Cl)c(-c2nc3ccccc3[nH]2)c1)c1cccnc1`: the activity was -6.18%.

For `O=C(Nc1ccc(NS(=O)(=O)c2ccccc2)cc1)c1cccnc1`, the activity is -3.36%.

As to `Cc1ccc(Cc2c(C)nc3nc(SCC(=O)NCc4ccco4)nn3c2C)cc1`, the activity was 0.407%.

For `CCN(CC)S(=O)(=O)c1ccc(NC(=O)c2ccc(Cl)nc2)cc1`, the activity was -9.18%.

`Fc1ccc(-c2ccc3c(c2)C2CC3CCN2)cc1` (centres undefined): the activity was -2.07%.

On to `O=C(Nc1ccc(F)c(F)c1)C1CCN(S(=O)(=O)c2cccs2)CC1`, for which the activity was -5.08%.

As for `CCCc1cc(=O)oc2c3c(cc(OCC(=O)NCCCn4ccnc4)c12)OC(C)(C)CC3`, the activity was -5.78%.

On to `CCc1c(C)nc2ncnn2c1Nc1ccc(C#N)c(Cl)c1`, for which the activity is -6.62%.

`Cn1nnc2cc(C(=O)N3CCC(c4ccccc4)C3)ccc21` (centres undefined): the activity was -8.37%.

In the case of `COc1cccc(CNC(=O)c2ccc(NC(=O)C3=CSCCO3)cc2)c1`, the activity stood at 2.21%.

On to `COc1ccc(-c2nc3ccc(Cl)cn3c2Cc2ccccc2)cc1OC`, for which the activity was -6.73%.

`CCOC(=O)C1CCN(C(=O)Nc2ccc3snnc3c2)CC1`: the activity came to 4.49%.

Take `COc1ccc([N+](=O)[O-])cc1C(=O)NC1CCN(Cc2ccccc2)CC1`: the activity was 0.517%.

`O=C(Nc1ccccc1)N1CCN(Cc2ccc3c(c2)OCO3)CC1`: the activity was -3.08%.

`O=C(Nc1ccc2snnc2c1)N1CCOCC1`: the activity amounted to 0.943%.

As for `Cc1nc2nc(SCC(=O)NCCCN3CCOCC3)nn2c(C)c1Cc1ccccc1`, the activity is 8.93%.

With `Cc1ccc(/C=C(\CCC(=O)O)c2nc3ccccc3s2)cc1[N+](=O)[O-]`, the activity was determined as 1.87%.

On to `COc1ccccc1-c1cc(C(F)(F)F)nc(S(=O)(=O)CCCC(=O)O)n1`, for which the activity is -8.12%.

Regarding `CCOC(=O)c1c(N)sc(C(N)=O)c1C`, the activity was -0.1%.

Consider `Cc1nc2c(C(=O)N3CCN(c4ccccn4)CC3)cnn2c(C)c1Cc1cccc(Cl)c1`, for which the activity was found to be 5.14%.

The values are drawn from PubChem BioAssay AID651900 (Broad Institute, 2012).
